Patent US9193792
No constants are given. Whether binding was seen depends on the method and setting. Some entries that bind do so weakly or less than the wild type.

The chains behind the UniProt entries cited, without tags or fusion partners. Residues count along the entry.
UniProt P35968, residues 20-764: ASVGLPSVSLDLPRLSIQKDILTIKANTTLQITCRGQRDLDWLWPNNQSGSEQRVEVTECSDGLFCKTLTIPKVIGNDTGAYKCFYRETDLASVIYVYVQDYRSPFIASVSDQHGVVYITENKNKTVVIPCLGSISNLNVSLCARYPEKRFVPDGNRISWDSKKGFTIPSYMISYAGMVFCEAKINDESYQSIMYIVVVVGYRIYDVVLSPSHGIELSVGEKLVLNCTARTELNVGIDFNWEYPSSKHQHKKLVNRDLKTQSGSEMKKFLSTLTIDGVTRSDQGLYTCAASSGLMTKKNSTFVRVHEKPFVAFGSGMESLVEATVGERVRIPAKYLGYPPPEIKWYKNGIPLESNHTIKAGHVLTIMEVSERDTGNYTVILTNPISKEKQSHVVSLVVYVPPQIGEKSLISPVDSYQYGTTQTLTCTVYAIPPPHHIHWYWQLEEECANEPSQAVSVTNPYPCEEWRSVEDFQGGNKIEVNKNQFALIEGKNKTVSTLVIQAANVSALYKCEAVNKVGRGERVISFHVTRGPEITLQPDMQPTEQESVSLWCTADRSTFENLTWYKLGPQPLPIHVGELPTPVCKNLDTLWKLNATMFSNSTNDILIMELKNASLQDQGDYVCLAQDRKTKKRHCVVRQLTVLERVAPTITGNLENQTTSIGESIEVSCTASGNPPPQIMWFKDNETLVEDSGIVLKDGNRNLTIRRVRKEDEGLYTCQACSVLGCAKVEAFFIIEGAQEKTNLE

B1: KDR1.3 scFv (scFv, V domains shown, not shown: large carriers)
VH: VKLQQSGPSLVKPSQTLSLTCSVTGDSITSGNWNWIRKFPGHKLEYMGYISYSGSTYYNPSLKSRISITRDTSKNQFFLQLNSVTTEDTATYYCARYGGNYFDYWGQGTTVTVSS
B2: KDR2.6 scFv (scFv, not shown: large carriers)
scFv: QVKLQESGPELEKPGASVKISCKASGYAFIGYNMNWVKKSNEKSLEWIGNIDPYYCGTSYNQKFKGKATMTVDESSSTAFMQLKSLTSEDSAVYYCARGTMITTSYAMDYWGQGTTVTVSSGGGSGGGGSGGGGSDIELTQSPAILSASPGEKVTMTCRASSSVSYMHWYQQKPGSSPKPWIYATSNLASGVPARFSGSGSGTSYSLTISRVEAEDAATYSCQQWSSNLLTFGAGTKLEIKRA

Target: Recombinant Human (sVEGFR2) sKDR D1-7 (human) (UniProt P35968)
Assay: ELISA on coated soluble KDR

Row | Binder | binding
1 | B1 | binds
2 | B2 | binds
